Experimental data as given in patent publication US7547728B2, “Treating muscle wasting with selective androgen receptor modulators” (priority 2001, dated 2009).

Test system: MHC II b mRNA
Assay: MHC IIb mRNA expression by RT-PCR in masseter muscle of intact female rats
Assay type: in vivo, rat
Conditions: for 18 S band intensity (average intensity of all pixels in the spot): internal control 18S
Protocol: Rat muscle tissue was harvested in 5 volumes of RNA later solution (Ambion, cat.# 7020) and stored at 4° C. until used for RNA isolation. Total RNA was isolated in the FastPrep FP120 instrument (Qbiogene) using RNAqueous-4PCR kit (Ambion, cat # 1914) in combination with FastRNA green tubes (Qbiogene, cat.# 6040-600) at settings for time at 45 sec and speed at 6.5.1 ug of total RNA was used for reverse transcription using Retroscript kit (Ambion, cat# 1710). The mixture was incubated at 42° C. for 60 min, followed by 10 min at 92° C., and then chilled on ice and used in PCR reaction.
Relatively quantitative RT-PCR was used to analyze expression of MHC mRNA in rat musculus masseter (MM) and levator ani (LA). As an internal standard 18S ribosomal RNA was used (QuantumRNA classic 18S Internal Standard, Ambion, cat.# 1716). Linear range of PCR reaction for all primers as well as optimal ratio of 18S primers to competitors to achieve the same level of amplification as the genes of interest was determined.
Primers were obtained from IDT based on the recently published design (Wright et al., J. Appl. Phys. 1997;83:1389), with the following sequence: 5′[…]3′. […]
5 units of Taq DNA polymerase (Roche, cat# 1146165), 200 μM of each dNTP (Invitrogen, cat.#R725-01), 0.2 μM each MHC primer (IDT), 1 μl of cDNA from reverse transcription reaction and 4 μl of 18S primers: competitors mixture were used in 50 μl PCR reaction. […] PCR products were analyzed by agarose gel electrophoresis [20-μl aliquots of a 50-μl PCR reaction loaded on a 1.5% agarose gel (in 1× Tris-Acetate-EDTA buffer) containing 0.2 μg/ml ethidium bromide] to visualize the PCR products. […] Pictures were scanned and the volume of the optical density (OD) of a DNA band was determined by the Image Quant software (Molecular Dynamics), and the background was subtracted (so local background was directly proportional to the amount of DNA over a wide range). […] The content of each experimental group MHC gene was calculated as a percentage of the MHC value in the control group (Table 2).

Structure (SMILES) | 18 S band intensity (average intensity of all pixels in the spot) | II b/18 S
CC(=O)Nc1ccc(OC[C@](C)(O)C(=O)Nc2ccc([N+](=O)[O-])c(C(F)(F)F)c2)cc1 [Compound V] | 171 | –
CCC(=O)O[C@H]1CC[C@H]2[C@@H]3CCC4=CC(=O)CC[C@]4(C)[C@H]3CC[C@]12C [TP, testosterone propionate, reference compound] | 141 | 0.64
